In article PMC8584520:
Results are given in words; binding and its absence hold for the method and conditions named. In cells and extracts the contact can be indirect. Binding calls can cover weak binding; strength is not graded here.

The chains behind the UniProt entries cited, without tags or fusion partners. Where a name states a change or a piece, a line headed by the entry shows the natural chain unless it says otherwise.
UniProt Q86C20: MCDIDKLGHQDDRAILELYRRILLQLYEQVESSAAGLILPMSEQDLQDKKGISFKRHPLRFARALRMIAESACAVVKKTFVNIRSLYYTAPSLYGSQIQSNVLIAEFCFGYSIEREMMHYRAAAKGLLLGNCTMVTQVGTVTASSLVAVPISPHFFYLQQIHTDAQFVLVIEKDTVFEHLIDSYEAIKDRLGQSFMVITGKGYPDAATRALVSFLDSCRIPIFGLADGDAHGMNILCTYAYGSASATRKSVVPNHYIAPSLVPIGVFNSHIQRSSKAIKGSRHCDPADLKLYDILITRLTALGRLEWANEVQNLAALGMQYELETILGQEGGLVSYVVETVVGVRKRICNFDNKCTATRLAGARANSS
UniProt Q86R88: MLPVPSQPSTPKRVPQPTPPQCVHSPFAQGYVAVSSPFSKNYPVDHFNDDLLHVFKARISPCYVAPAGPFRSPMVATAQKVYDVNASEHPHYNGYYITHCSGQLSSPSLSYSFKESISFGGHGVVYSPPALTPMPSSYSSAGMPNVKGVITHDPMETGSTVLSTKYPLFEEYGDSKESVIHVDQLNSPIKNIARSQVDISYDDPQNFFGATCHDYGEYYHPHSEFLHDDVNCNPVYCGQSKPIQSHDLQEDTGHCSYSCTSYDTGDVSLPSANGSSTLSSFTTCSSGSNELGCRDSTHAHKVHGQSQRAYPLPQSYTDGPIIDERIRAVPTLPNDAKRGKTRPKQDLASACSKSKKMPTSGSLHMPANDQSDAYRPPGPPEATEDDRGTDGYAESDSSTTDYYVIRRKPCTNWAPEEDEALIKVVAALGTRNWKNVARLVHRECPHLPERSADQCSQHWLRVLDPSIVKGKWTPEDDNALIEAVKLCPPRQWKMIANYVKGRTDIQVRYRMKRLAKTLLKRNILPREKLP

Legend:
[1] = biological target: HA-tagged Giardia lamblia Spo11 (Spo11-HA) (G. lamblia) (UniProt Q86C20); assay: co-IP; lysates of pPSpo11 stable transfectants (control: 5'Δ5N-Pac) cultured in encystation medium for 24 h; anti-HA antibody conjugated to beads; Western blot with anti-HA, anti-WRKY, anti-MYB2, anti-ISCS
[2] = biological target: MYB2 (G. lamblia (endogenous in WB trophozoites)) (UniProt Q86R88); assay: co-IP; reciprocal: lysates of pPSpo11 stable transfectants in encystation medium for 24 h; 2 μg anti-WRKY or anti-MYB2 antibody or preimmune serum for 2 h, then protein G plus/protein A-agarose for 1 h; Western blot with anti-HA

Row | binding [1] | binding [2] | Substance
1 | binds | – | MYB2 (from UniProt Q86R88)
2 | – | binds | HA-tagged Giardia lamblia Spo11 (Spo11-HA) (from UniProt Q86C20)
